Experimental data published in PubChem BioAssay AID2685 (National Center for Advancing Translational Sciences (NCATS), 2010).
Some of the results follow. These are further read-outs of the screen, such as a control signal, another cell line or another target. No call is given for them. Most of these compounds were active or inconclusive in the main read-out, so they are no random draw. The note in brackets gives the kind of curve behind each potency; many fits are weak.

Test: qHTS Assay for Lipid Storage Modulators in Drosophila S3 Cells;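 for cell number change: cells counted by Cell Tracker Red CMTPX staining in the red channel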
Conditions: BODIPY lipid droplet fluorescence, 18-24 h; for cell number change: measured here: cell count max response, cells fed with added oleic acid
How it was run: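 Laser-scanning cytometry quantifies lipid droplet accumulation (500–530 nm total intensity; droplet/cell object ratio) in oleic acid-fed (400 uM added) Drosophila S3 cells treated with a concentration series. 20 uM Triacsin C defined 100% inhibition.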

[1] = measured here: lipid fluorescence (Fed channel) AC50, cells fed with added oleic acid
[2] = measured here: cell number channel AC50, cells fed with added oleic acid

| SMILES | cell number change [%] | AC50 [1] | AC50 [2] |
| --- | --- | --- | --- |
| CCC(C(=O)NCCc1ccc(C)cc1)n1nc(C)c2c(C)n(-c3ccccc3)nc2c1=O (stereo not drawn) | -18.9 | 0.58 µM [falling, single point] | – |
| CCOC(=O)N1CCN(Cc2nc(Cc3cccc(F)c3)no2)CC1 | 21.3 | 0.082 µM [rising, full curve, poor fit] | – |
| Cc1ccc(-c2nc3s/c(=C\c4ccco4)c(=O)n3n2)cc1 | -11.1 | 0.731 µM [falling, full curve, poor fit] | – |
| CCS(=O)(=O)c1nc(S(=O)(=O)c2ccc(C)cc2)c(N2CCC(C)CC2)s1 | -20.3 | – | – |
| CCOC(=O)c1c(NC(=O)CCS(=O)(=O)c2ccccc2)sc2c1CCN(C(C)C)C2 | -13.8 | 16.4 µM [falling, single point] | – |
| CCN1C(=O)/C(=C2/Sc3ccccc3N2CC)S/C1=N\c1ncn[nH]1 | -34 | 23.1 µM [falling, single point] | 23.1 µM [falling, single point] |
| CCCC(c1nnnn1C1CCCCC1)N1CCN(C(=O)c2ccco2)CC1 (stereo not drawn) | 5 | – | – |
| CCCC(=O)Nc1nc(-c2ccc3c(c2)OCCO3)cs1 | 62.9 | 6.51 µM [rising, single point] | 11.6 µM [rising, partial curve] |
| COc1cccc(OC)c1C(=O)Nc1ccc2c(c1)n(C)c(=O)n2C | -9.67 | 29.1 µM [rising, single point] | – |
| COc1cc2c(cc1OC)C(=O)CCS2 | 10.9 | 6.51 µM [falling, single point] | 0.82 µM [falling, full curve, poor fit] |
| Cc1cc(F)ccc1NC(=O)c1cc(S(=O)(=O)N2CCCC2)cn1C | 3.17 | 4.61 µM [rising, single point] | – |
| Cc1cccc(-n2[nH]c(C)c(C=Nc3ccc4[nH]c(=O)[nH]c4c3)c2=O)c1 | -11.7 | 29.1 µM [falling, single point] | – |
| COc1cc(NC(=O)CN2CCN(CC(=O)Nc3ccccc3OC)CC2)cc(OC)c1 | 15.5 | – | – |
| COC(=O)Nc1ccc(S(=O)(=O)N2CCCC(C(=O)NC3CCS(=O)(=O)C3)C2)cc1 (stereo not drawn) | 20.4 | 23.1 µM [rising, single point] | – |
| COc1ccc(C2=NN(C(=O)CSc3nc(=O)n4cc(C)ccc4n3)C(c3ccc(C)cc3)C2)cc1 (stereo not drawn) | 60.8 | 3.26 µM [rising, partial curve] | 4.11 µM [rising, partial curve] |
| CC(CCc1ccccc1)OS(N)(=O)=O (stereo not drawn) | 37.2 | – | 11.6 µM [rising, partial curve, poor fit] |
| Cn1nc(-c2ccc(C(=O)NC3CCCCC3)cc2)c2ccccc2c1=O | -14.5 | 35.5 µM [falling, single point] | – |
| Cc1cccc(C(=O)NCCc2ccc(S(N)(=O)=O)cc2)c1[N+](=O)[O-] | -2.43 | 3.26 µM [rising, single point] | – |
| OCCCNc1nnc(-c2ccccc2)c2ccccc12 | 49.9 | 32.6 µM [rising, partial curve] | 29.1 µM [rising, single point] |

| SMILES | cell number change [%] | AC50 [1] | AC50 [2] |
| --- | --- | --- | --- |
| COc1ccccc1C(=O)COC(=O)C1CCN(S(=O)(=O)c2ccc(C)c(C)c2)CC1 | -7 | – | – |
| O=c1cc(-c2ccccc2)nc2nc(SCc3ccccc3)[nH]n12 | 34.3 | – | 18.4 µM [rising, single point] |
| CCc1ccc(NC(=O)CC2NCCNC2=O)cc1 (stereo not drawn) | -46 | 0.731 µM [falling, full curve] | 29.1 µM [falling, single point] |
| C[C@H](NC(=O)[C@@H]1Cc2ccccc2CN1)C(=O)NC[C@H]1CC[C@H](C(=O)O)CC1 | -15.7 | 23.1 µM [falling, single point] | – |
| CCOc1ccc(NC(C)C(=O)N/N=C/c2cccs2)cc1 (stereo not drawn) | 10.4 | 1.03 µM [rising, full curve, poor fit] | – |
| Cc1ccccc1-n1c(SCC(=O)c2c(N)n(C)c(=O)n(C)c2=O)nc2sc3c(c2c1=O)CCCC3 | 7.15 | 0.58 µM [rising, full curve] | – |
| CC(C)=C(NC(=O)c1ccccc1)C(=O)N1CCOCC1 | -33.9 | 0.259 µM [falling, full curve] | 29.1 µM [falling, single point] |
| COc1ccc(OCCSc2nnc(-c3ccoc3C)n2C)cc1 | -8.29 | 0.651 µM [rising, full curve] | – |
| CCOc1ccc(NC(=O)c2ccccc2SC)cc1 | -28.3 | 29.1 µM [falling, single point] | – |
| COCCCNC(=O)CCc1c(C)nc2c(-c3ccc(F)cc3)c(C)nn2c1C | 12.5 | – | 2.06 µM [rising, single point] |
| O=C1C(Cl)=C(N2CCCCC2)C(=O)N1c1ccccc1Cl | -34.7 | 16.4 µM [falling, partial curve] | 0.184 µM [falling, full curve, poor fit] |
| O=C(CCn1cnc2ccccc2c1=O)Nc1ccc(Cl)c(Cl)c1 | -91 | 23.1 µM [falling, single point] | 16.4 µM [falling, partial curve] |
| COc1ccc(C(=O)Nc2ccc3ccccc3c2)cc1 | 7.77 | 29.1 µM [falling, single point] | – |
| O=C(O)c1cc(-c2ccccc2)nc2nc(N3CCCCC3)sc12 | -24.6 | 20.6 µM [falling, single point] | – |
| C/C(CC(C)C)=N/Nc1ccc([N+](=O)[O-])cc1[N+](=O)[O-] | -47.3 | 29.1 µM [falling, single point] | 20.6 µM [falling, single point] |
| CCOC(=O)C1(Cc2cccc(OC)c2)CCCN(Cc2cc(OC)c(O)c(OC)c2)C1 (stereo not drawn) | 16.5 | – | – |
| COc1ccc(C(=O)c2cc([N+](=O)[O-])ccc2N2CCOCC2)cc1 | – | 11.6 µM [rising, partial curve] | – |
| CCCCn1c(N)c(N(CCC(C)C)C(=O)CSc2nnc(C)s2)c(=O)[nH]c1=O | 1.34 | – | – |
| CCCc1nc2ccccc2c(C(=O)N(CC)CC(=O)NCc2cccs2)c1CC | 38.5 | – | 8.2 µM [rising, partial curve] |

Some values from the results shown.
`O=c1cc(-c2ccccc2)nc2nc(SCc3ccccc3)[nH]n12` | cell number change [%]: 34.3
`O=C1C(Cl)=C(N2CCCCC2)C(=O)N1c1ccccc1Cl` | AC50 [1]: 16.4 µM [falling, partial curve]
`CCc1ccc(NC(=O)CC2NCCNC2=O)cc1` (stereo not drawn) | AC50 [2]: 29.1 µM [falling, single point]
`CCOC(=O)C1(Cc2cccc(OC)c2)CCCN(Cc2cc(OC)c(O)c(OC)c2)C1` (stereo not drawn) | cell number change [%]: 16.5

The list continues:

| SMILES | cell number change [%] | AC50 [1] | AC50 [2] |
| --- | --- | --- | --- |
| CCOc1ccc(Oc2ccc(C(F)(F)F)cc2N)cc1 | -31.2 | 16.4 µM [falling, single point] | 16.4 µM [falling, single point] |
| COc1ccc(NC(=O)Nc2ccc(C(C)C)cc2)cc1 | 16.3 | 1.3 µM [rising, full curve, poor fit] | – |
| O=S(=O)(c1ccccc1)C1(C2CC(c3ccccc3)=NO2)CC(O)C1 (stereo not drawn) | -6.59 | – | – |
| Cc1cc(C)c2cc(CN(Cc3ccco3)C(=O)NCc3ccccc3)c(=O)[nH]c2c1 | – | 1.3 µM [rising, partial curve] | – |
| O=C(O)CSc1nnc(-c2cccs2)n1-c1ccc(Cl)cc1 | -22.2 | 29.1 µM [falling, single point] | – |
| Cc1cc(NC(=O)c2ccc(Cl)cc2)cc(C)c1OCC(=O)N1CCOCC1 | -9.86 | 1.16 µM [falling, single point] | – |
| Cc1ccc(-c2[nH]nc3c2C(c2ccoc2)C(C#N)=C(N)O3)cc1C (stereo not drawn) | -17.8 | 4.11 µM [rising, single point] | – |
| Cc1ccc(NC(=O)CN(C)C(=O)C(C)N2CCN(Cc3ccccc3C)CC2)cc1 (stereo not drawn) | 11.5 | 6.51 µM [rising, single point] | – |
| CN(C(=O)CSc1nnc(NC2CCCCC2)s1)C1CCS(=O)(=O)C1 (stereo not drawn) | -7.54 | – | 0.00651 µM [falling, full curve, poor fit] |
| CC1(C(=O)O)CCC(C(=O)Nc2ccccc2)C1(C)C (stereo not drawn) | -25.2 | 3.26 µM [falling, full curve] | 1.64 µM [falling, full curve, poor fit] |
| O=[N+]([O-])c1ccccc1/C=C/CN1CCCCC1 | -23.9 | 0.146 µM [falling, full curve, poor fit] | – |
| O=C(CSc1n[nH]c(=O)n1-c1ccc2c(c1)OCCO2)Nc1ccccc1 | 27.2 | – | 4.11 µM [rising, full curve, poor fit] |
| O=C(O)/C=C/C(=O)N(Cc1ccc2c(c1)OCO2)C1CC(=O)N(CCc2ccccc2)C1=O (stereo not drawn) | 4.05 | 0.184 µM [falling, full curve, poor fit] | – |
| CC(C)OCCCNC(=O)CNC(=O)c1cccs1 | -10.8 | 0.206 µM [falling, full curve] | – |
| COCCOC(=O)C1=C(C)N(c2ccccc2)C(=S)NC1c1ccccc1C(F)(F)F (stereo not drawn) | 46.6 | 0.146 µM [falling, full curve, poor fit] | 5.17 µM [falling, single point] |
| CC(NC(=O)C1CCCN(C(=O)N(C)C)C1)c1ccccc1 (stereo not drawn) | – | 20.6 µM [falling, partial curve] | – |
| COc1ccc(CN2CCNC(=O)C2CC(=O)NCCCC2CCCC2)c(F)c1 (stereo not drawn) | 24.1 | 2.06 µM [rising, partial curve] | – |
| COc1ccc(CCN(C)S(=O)(=O)c2cn(C)c(=O)n(C)c2=O)cc1OC | -10.3 | 0.0731 µM [falling, full curve, poor fit] | – |
| COc1ccc(NC(=O)CSc2nc(O)c(Cc3ccccc3)c(=O)[nH]2)cc1 | -43.9 | 29.1 µM [falling, single point] | 29.1 µM [falling, single point] |
